{"source": "patent US11458135B2", "about": "“Combination of pure 5-HT6 receptor antagonists with acetylcholinesterase inhibitors” (priority 2016, dated 2022)", "assay": "Rodent pharmacokinetic study for assessment of drug interaction", "settings": "compound 1 3 mg/kg, p.o., donepezil 1 mg/kg, s.c.; male Wistar rats", "procedure": "Male Wistar rats (260±50 grams) were used as experimental animals. Animals were housed individually in polypropylene cages and acclimatized for three days prior to study.\nBlood was collected through retro orbital plexus under isoflurane anesthesia. Collected blood was transferred into a pre-labeled eppendorf tube containing 10 μL of sodium heparin as an anticoagulant. Blood samples were collected at following time points: 0.33, 0.66, 1, 1.5, 2, 4, 6, 8 and 24 hours post dose. Blood was centrifuged at 4000 rpm for 10 minutes. Plasma was separated and stored frozen at −80 ° C. until analysis. […] The test compounds were quantified in the calibration range around 0.05-100 ng/mL in plasma. Study samples were analyzed using calibration samples in the batch and quality control samples spread across the batch.\nPharmacokinetic parameters Cmax, Tmax and AUClast were calculated by non-compartmental model using Phoenix WinNonlin 6.4.0 version Software package.", "data": [{"smiles": "COc1cc2c(cc1OC)C(=O)C(CC1CCN(Cc3ccccc3)CC1)C2", "note": "(stereo not shown) [Donepezil]", "values": [{"measurement": "difference in plasma exposures administered alone or in combination", "value": "No significant difference"}]}]}
